Experimental data: PubChem BioAssay AID1671195 (Yale University, 2021)
This is an unselected part of about 22,000 reagents. Over the whole deposit, about 1,510 (6.9%) got an active call. 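Active includes knockdowns raising or lowering LDL uptake; positive z-scores mean more uptake, negative mean less.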 Entries without a mark were called inactive.

Purpose: 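Genes whose knockdown alters LDL uptake in liver cancer cells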 (primary screen)
Cells: human Huh7 hepatoma cells
Reagents: siRNA pool against human genes, 18 nM
Timing: about 2 to 2.5 days of knockdown, then 8 h LDL uptake
Treatment: DiI-labelled LDL at 30 µg/ml for 8 h, in lipoprotein-deficient serum medium
Measured: 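Fluorescent LDL signal imaged in cells, scaled to the plate median, robust z-score for each replicate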
Reading the numbers: robust z-score: higher = more LDL uptake after knockdown
Active means: 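a gene counts as active if at least two replicate z-scores exceed ±2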

CLEC1B
- robust z-score, replicate 1: -0.615
- robust z-score, replicate 2: 0.108
- robust z-score, replicate 3: -0.416

LOC440066 (retired record)
- robust z-score, replicate 1: -0.776
- robust z-score, replicate 2: -0.329
- robust z-score, replicate 3: -0.418

FAM53B
- robust z-score, replicate 1: 0.949
- robust z-score, replicate 2: -0.957
- robust z-score, replicate 3: -0.073

TMEM139
- robust z-score, replicate 1: 0.375
- robust z-score, replicate 2: 0.173
- robust z-score, replicate 3: 1.06

PLAC8
- robust z-score, replicate 1: 2.23
- robust z-score, replicate 2: -0.283
- robust z-score, replicate 3: -0.607

GDAP1
- robust z-score, replicate 1: 0.28
- robust z-score, replicate 2: -0.673
- robust z-score, replicate 3: 0.508

ZNF212
- robust z-score, replicate 1: -0.588
- robust z-score, replicate 2: -0.188
- robust z-score, replicate 3: -0.356

An excerpt from the list above, as a working copy:
CLEC1B
- robust z-score, replicate 1: -0.615
- robust z-score, replicate 2: 0.108
- robust z-score, replicate 3: -0.416

LOC440066 (retired record)
- robust z-score, replicate 1: -0.776
- robust z-score, replicate 2: -0.329
- robust z-score, replicate 3: -0.418

Next results:
LOC441103 (retired record)
- robust z-score, replicate 1: -0.135
- robust z-score, replicate 2: -0.544
- robust z-score, replicate 3: -0.355

RBM24
- robust z-score, replicate 1: -0.00709
- robust z-score, replicate 2: -0.368
- robust z-score, replicate 3: 0.051

PFKFB3
- robust z-score, replicate 1: -0.718
- robust z-score, replicate 2: -0.167
- robust z-score, replicate 3: -0.421

TAS2R42
- robust z-score, replicate 1: 0.653
- robust z-score, replicate 2: 0.231
- robust z-score, replicate 3: 0.00314

PTAR1
- robust z-score, replicate 1: 1
- robust z-score, replicate 2: 1.36
- robust z-score, replicate 3: 1.42
